# Laboratory results published in paper PMC10473914, “Phosphorylation of Ack1 by the Receptor Tyrosine Kinase Mer” (Kinases and phosphatases, 2023).
# The chains behind the UniProt entries cited, without tags or fusion partners.
# UniProt Q07912: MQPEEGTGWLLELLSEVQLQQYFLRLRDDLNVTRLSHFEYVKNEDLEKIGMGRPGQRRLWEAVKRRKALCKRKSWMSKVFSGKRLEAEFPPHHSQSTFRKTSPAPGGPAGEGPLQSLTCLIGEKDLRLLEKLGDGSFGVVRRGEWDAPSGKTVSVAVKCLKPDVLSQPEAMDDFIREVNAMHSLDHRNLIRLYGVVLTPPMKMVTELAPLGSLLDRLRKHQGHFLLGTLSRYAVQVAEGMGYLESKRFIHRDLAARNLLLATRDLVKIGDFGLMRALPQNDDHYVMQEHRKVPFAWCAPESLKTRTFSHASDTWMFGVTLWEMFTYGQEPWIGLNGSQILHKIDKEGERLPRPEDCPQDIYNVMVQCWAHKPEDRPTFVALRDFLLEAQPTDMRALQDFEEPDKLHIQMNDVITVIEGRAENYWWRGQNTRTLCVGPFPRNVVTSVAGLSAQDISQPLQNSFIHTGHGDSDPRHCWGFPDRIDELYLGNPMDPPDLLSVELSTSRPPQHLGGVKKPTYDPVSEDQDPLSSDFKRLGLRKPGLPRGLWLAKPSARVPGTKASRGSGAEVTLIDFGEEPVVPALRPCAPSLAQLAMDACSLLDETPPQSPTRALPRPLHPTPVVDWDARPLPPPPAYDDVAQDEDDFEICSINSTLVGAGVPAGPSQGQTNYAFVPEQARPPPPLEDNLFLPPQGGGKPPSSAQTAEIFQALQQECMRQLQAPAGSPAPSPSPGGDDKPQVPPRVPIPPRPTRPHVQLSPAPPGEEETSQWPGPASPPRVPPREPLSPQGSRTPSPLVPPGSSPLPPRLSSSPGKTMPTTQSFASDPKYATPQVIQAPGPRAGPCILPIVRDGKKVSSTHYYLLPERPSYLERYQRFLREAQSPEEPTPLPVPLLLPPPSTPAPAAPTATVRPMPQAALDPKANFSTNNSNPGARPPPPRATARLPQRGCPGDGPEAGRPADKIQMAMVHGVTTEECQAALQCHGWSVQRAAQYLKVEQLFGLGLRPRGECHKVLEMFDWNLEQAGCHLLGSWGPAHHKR
# These are yes or no findings as the source states them, for the method shown. In cells and extracts the contact can be indirect. Some results given as binding are weak or reduced against the parent protein; the word gives no strength.
# Target: T1, Mer receptor tyrosine kinase, full length (UniProt Q60805)
# T1 sequence: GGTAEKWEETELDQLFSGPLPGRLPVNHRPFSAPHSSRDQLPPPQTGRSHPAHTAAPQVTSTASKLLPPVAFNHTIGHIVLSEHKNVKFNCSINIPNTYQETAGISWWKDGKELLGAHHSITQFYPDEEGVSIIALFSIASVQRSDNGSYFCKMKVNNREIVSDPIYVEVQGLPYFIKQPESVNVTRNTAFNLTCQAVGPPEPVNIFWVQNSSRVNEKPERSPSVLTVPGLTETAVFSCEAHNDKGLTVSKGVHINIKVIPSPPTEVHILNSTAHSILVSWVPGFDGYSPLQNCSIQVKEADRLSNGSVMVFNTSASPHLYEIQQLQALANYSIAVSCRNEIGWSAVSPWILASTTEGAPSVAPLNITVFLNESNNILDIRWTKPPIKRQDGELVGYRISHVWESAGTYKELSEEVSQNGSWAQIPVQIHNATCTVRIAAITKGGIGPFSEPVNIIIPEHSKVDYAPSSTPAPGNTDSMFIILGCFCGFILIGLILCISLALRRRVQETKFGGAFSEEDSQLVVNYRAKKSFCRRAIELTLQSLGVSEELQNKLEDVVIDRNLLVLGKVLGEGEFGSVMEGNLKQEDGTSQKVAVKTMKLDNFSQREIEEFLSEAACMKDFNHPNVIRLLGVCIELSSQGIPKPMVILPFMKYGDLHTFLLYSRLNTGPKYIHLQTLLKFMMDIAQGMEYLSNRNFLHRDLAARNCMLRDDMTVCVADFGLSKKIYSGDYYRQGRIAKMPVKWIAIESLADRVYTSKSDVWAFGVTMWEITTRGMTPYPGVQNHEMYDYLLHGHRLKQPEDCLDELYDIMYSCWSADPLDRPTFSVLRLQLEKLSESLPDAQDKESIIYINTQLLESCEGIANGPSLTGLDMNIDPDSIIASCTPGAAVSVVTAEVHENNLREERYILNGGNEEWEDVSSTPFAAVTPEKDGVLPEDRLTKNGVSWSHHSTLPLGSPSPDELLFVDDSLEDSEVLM
# Test: co-IP; HEK293T lysates (0.8 mg) with 1.4 ug anti-Mer antibody (ab184086) and Protein A-agarose at 4 C overnight; anti-Flag Western blot; cells unstimulated or stimulated with 120 ng/mL Gas6 for 15 min
substance,measurement,value
"Flag-tagged full-length Ack1, wild type (from UniProt Q07912 1-1038) (enzyme)",binding,binds
